To fix the notation:
B1: il2ra_site1_2b5i_normal_mot_HHH_b1_00095_000000042_0001_1_14_H_._HHH_b2_06882_af2_0001_0000200010_0000001_0_af2pred_dldesign_0_af2pred (protein)
chain: SSSSSSPEALAAEAKARADELRKAGKRREAIELLEETAKELGKLNDPKAEELIDELAKLISSSSS
B2: il2ra_site2_3nfp_sap_23_mot_HHH_b1_02676_000000238_0001_38_56_H_._HHH_b2_07018_0001_0000200005_0000001_0_0001 (protein)
chain: SSSSDEEEELEEYIKELEKLLEEGDKEEFERLLREASQLAWEANDTEIFMLLAELLLKVASSSSS
B3: il2ra_site1_3nfp_sap_14_mot_HHH_b1_06981_000000192_0001_1_19_H_._7a3d71bd8e0044baaa50656571eb2fb7_0001_af2_0001_0000100007_0000001_0_0001_af2pred_0001_af2pred_1 (protein)
chain: SSSSDLERIEELLRQAHELAERGNYEEARRLIEEALEIAEELGDEHTRKILEHLLKILESISSSS
B4: il2ra_site2_2erj_normal_mot_HHH_b1_03107_000000098_0001_39_52_H_._HHH_b1_08755_af2_0001_0000400023_0000001_0 (protein)
chain: SSSSDELYERVAELLVQAQEAYQRGDEELLEELLEEARRVAEEANSPALRRYVEYVRRDASSSSS
B5: il2ra_site1_3nfp_sap_24_mot_bca1cc675e315f79de6ed5a5a20872d8_0001_000000179_0001_36_50_H_._beb1d263b9c7401a962785d3a1373af0_0001_af2_0001_0000600024_0000001_0_0 … (protein)
chain: SSSSDELQKRVEELLKRISELLQEGDEEEARKLIEEVEELAEEANSPAAKLLAERLERLVDSSSS
B6: il2ra_site1_1z92_normal_mot_b1fbee8209167eaadba3689d49187f1a_0001_1_af2_000000019_0001_16_31_H_._HHH_b2_02076_af2_0001_0000100014_0000001_0_af2pred_0001_af2pred … (protein)
chain: SSSSSEEEELEKLVEELIKEYGADEHNKEALERDAQHSREAGFSERNIEQALRSAIRLLLSSSSS
B7: il2ra_site1_1z92_sap_14_mot_3afbd42359c492d9a5ba12d7e5b15de5_0001_000000167_0001_17_33_H_._HHH_b1_03999_0001_0000300027_0000001_0_0001_af2pred_0001_af2pred (protein)
chain: SEEVEFDLELAKKRGIPPRSVVRAVLSALKSLGIPPEEALELVREALERLNDPELEKVLEELKEK
B8: il2ra_site1_3nfp_sap_20_mot_HHH_b1_05070_af2_000000282_0001_43_57_H_._HHH_b2_02281_0001_0000300009_0000001_1_0001 (protein)
chain: DLEEILERIEEILEELNTKMARDLLRAIEWLKRAAPPEEVIKAILWAAEAAGDPEVVRLLREAVK
B9: il2ra_site2_3nfp_sap_15_mot_HHH_b1_03180_000000083_0001_40_56_H_._0f396a3c5b789435df01682a1ed80b82_0001_1_af2_0001_0000100005_0000001_0_0001 (protein)
chain: SSSSDEHKELIRKALEALEAAVEEGDEETFELLTEYLRAAIELANDPELRERLEELEERISSSSS
B10: il2ra_site1_3nfp_normal_mot_HHH_b1_01335_af2_000000105_0001_39_53_H_._HHH_b2_06296_0001_0000500034_0000001_0_af2pred_0001_af2pred_swapped (protein)
chain: SSSSDEEEEEVRELLRQAEEAEEEGDTEKALELVEEAERLAREIDNPELYEEVLEVLRRIASSSS
B11: il2ra_site2_3nfp_normal_mot_HHH_b1_02297_000000279_0001_41_58_H_._HHH_b2_05334_af2_0001_0000500026_0000001_0 (protein)
chain: SSSSEEERVEELIEEAERLLKEGDPEEARRVVARAAHIAFQLNNFELFALVNELAELIIRLSSSS
B12: il2ra_site1_1z92_normal_mot_HHH_b1_08597_af2_000000202_0001_42_56_H_._6e12af4a48b4634929ba45889b8be782_0001_0001_0000600034_0000001_0 (protein)
chain: NVEWAIENLERLARLQGNPEVERVLRRVLELLKKNEEEAEEFLEELVRELGDKLLRLLLRMLKTA
B13: il2ra_site1_2b5i_normal_mot_HHH_b1_01419_af2_000000080_0001_42_53_H_._HHH_b2_02924_af2_0001_0000200024_0000001_0 (protein)
chain: SSSSSNEEVQELFLEASRAFRKGDQEEAERILEEALKLAREAGNEREERQIEFMIKRVRGSSSSS
B14: il2ra_site2_2erj_normal_mot_6d5f7cbc25fed124e3eb7f952334b9cf_0001_af2_000000048_0001_1_13_H_._HHH_b1_00839_0001_0000100007_0000001_0 (protein)
chain: SSSSDEEEKLSREIFEEARRLFKEGNIEEARELVEEAIRLAEELNDPAILAALRALLRILESSSS
B15: il2ra_site1_1z92_normal_mot_HHH_b1_05598_af2_000000231_0001_1_16_H_._HHH_b2_05789_af2_0001_0000300041_0000001_0 (protein)
chain: SSSSSDEEELDEEAQELFHEAARIDDEEEVRRLLEEALELAREGNDENIARDLEQYLRALSSSSS
B16: il2ra_site1_2b5i_normal_mot_f5ff40796168375b462bec8614a1db4a_0001_1_000000138_0001_53_65_H_._HHH_b1_01842_0001_0000200006_0000001_0_af2pred_0001_af2pred_1 (protein)
chain: SSSSSDEELLQQSAEELIEEAKRIEDPERAQAILSLALSAARKANDEELEEEIEELLEELSSSSS
B17: il2ra_site2_3nfp_normal_mot_HHH_b2_07840_000000026_0001_18_34_H_._HHH_b2_06318_af2_0001_0000100003_0000001_1_af2pred_0001_1_af2pred_swapped (protein)
chain: SSSSDEEELKELKEELERLAKEGDYEELEELLKEAAQIAAEEGDEELFALVTELLELVLRYSSSS
B18: il2ra_site2_3nfp_sap_21_mot_HHH_b1_04781_af2_000000057_0001_1_18_H_._4439246daae91da06a95c8dcf57bacfb_0001_af2_0001_0000300023_0000001_0_0001 (protein)
chain: SSSSSEEAEELLKEAKEALEEGDLAKATHLAVRASEIALKLNDEELLREIMKLYEELARRYSSSS
B19: il2ra_site1_2b5i_normal_mot_HHH_b1_01495_af2_000000272_0001_42_56_H_._HHH_b2_01987_af2_0001_0000200003_0000001_1 (protein)
chain: SSSSSSDEAAELFLEASRLIQRGNQEEAKELLEEAIKIARELGNEKTVKDLEHMLERLSSSSSSS

The other results are listed elsewhere or left out.

Here are results for 19 molecules from paper PMC10163288.

In the assay the target is il2ra, P01589. Kind of assay: yeast display titration.
Take B1: the “apparent Kd” value was “inactive: no binding seen”.
For the molecule B2, the “apparent Kd” value is “inactive: no binding seen”.
As to B3, the “apparent Kd” value is “inactive: no binding seen”.
As to B4, the “apparent Kd” value was “inactive: no binding seen”.
As to B5, the “apparent Kd” value was “inactive: no binding seen”.
Consider B6, for which the “apparent Kd” value is “inactive: no binding seen”.
For B7, the apparent Kd is inactive: > 755 nM.
As for B8, the “apparent Kd” value is “inactive: no binding seen”.
The value for B9 was “inactive: no binding seen”.
For the molecule B10, the “apparent Kd” value is “inactive: no binding seen”.
For the molecule B11, the “apparent Kd” value was “inactive: no binding seen”.
Regarding B12, the apparent Kd is inactive: > 311 nM.
Regarding B13, the “apparent Kd” value is “inactive: no binding seen”.
B14: the “apparent Kd” value is “inactive: no binding seen”.
As to B15, the “apparent Kd” value was “inactive: no binding seen”.
In the case of B16 it was “inactive: no binding seen”.
Regarding B17, the “apparent Kd” value is “inactive: no binding seen”.
Turning to B18, the “apparent Kd” value is “inactive: no binding seen”.
In the case of B19 it was “inactive: no binding seen”.
